Assay [1] concerns the target T1, Toll-Like Receptor 9 (TLR9), endogenous in primary hepatic macrophages (mouse (endogenous in primary hepatic macrophages)) (UniProt Q9EQU3).
T1 sequence: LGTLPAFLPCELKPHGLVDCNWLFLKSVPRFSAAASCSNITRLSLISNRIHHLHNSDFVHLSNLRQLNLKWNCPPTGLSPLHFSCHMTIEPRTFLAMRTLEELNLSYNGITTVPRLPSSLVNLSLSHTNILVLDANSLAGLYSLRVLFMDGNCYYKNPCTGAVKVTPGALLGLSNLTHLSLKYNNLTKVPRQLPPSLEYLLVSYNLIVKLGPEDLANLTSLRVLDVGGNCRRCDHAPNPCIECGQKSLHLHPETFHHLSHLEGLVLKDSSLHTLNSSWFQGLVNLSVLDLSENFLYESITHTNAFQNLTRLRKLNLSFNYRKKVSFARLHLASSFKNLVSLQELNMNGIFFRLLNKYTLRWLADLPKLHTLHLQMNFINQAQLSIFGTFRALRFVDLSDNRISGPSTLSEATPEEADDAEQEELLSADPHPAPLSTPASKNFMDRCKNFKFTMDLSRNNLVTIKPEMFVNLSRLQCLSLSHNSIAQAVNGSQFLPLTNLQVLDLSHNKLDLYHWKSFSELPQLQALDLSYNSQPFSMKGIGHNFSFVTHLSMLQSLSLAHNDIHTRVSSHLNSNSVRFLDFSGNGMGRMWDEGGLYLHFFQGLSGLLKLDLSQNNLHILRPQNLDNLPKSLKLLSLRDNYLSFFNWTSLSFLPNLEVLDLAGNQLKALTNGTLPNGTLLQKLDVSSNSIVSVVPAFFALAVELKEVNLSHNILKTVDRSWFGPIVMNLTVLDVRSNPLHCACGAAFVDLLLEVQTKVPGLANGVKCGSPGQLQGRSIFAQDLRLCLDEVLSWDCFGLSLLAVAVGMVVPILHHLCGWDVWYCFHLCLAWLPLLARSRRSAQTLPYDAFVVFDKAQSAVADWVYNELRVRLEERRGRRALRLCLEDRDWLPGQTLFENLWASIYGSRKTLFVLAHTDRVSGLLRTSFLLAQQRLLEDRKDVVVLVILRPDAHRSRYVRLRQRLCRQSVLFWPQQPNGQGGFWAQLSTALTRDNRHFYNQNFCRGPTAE
The assay can be described thus: co-IP; endogenous proteins in primary hepatic macrophages; cells lysed in RIPA buffer, lysate incubated with antibody (GCA or TLR9) and protein A/G beads at 4 °C overnight; western blot. Background: A western blot detects proteins with antibodies after separation by electrophoresis.

In assay [2] the target is T2, HA-TLR9 (UniProt Q9EQU3).
T2 sequence: T1 sequence
The assay can be described thus: co-IP; HEK293T cells transfected with Myc-GCA and HA-TLR9; RIPA lysate, antibody and protein A/G beads at 4 °C overnight; western blot.

Assay [3] has as its target T3, TLR9 with a FLAG tag (mouse Tlr9 pcDNA3.1-FLAG-C), full-length (mouse) (UniProt Q9EQU3).
T3 sequence: T1 sequence
The assay is described as follows: co-IP; HEK293T cells transfected with MYC-tagged GCA constructs and FLAG-tagged TLR9; lysates immunoprecipitated with anti-FLAG antibody, immunoblotted with anti-FLAG or anti-MYC.

Results are given in words; binding and its absence hold for the method and conditions named. In cells and extracts the contact can be indirect. Some binding calls cover weakened binding; strength is not graded here. For some of these results: Tags and fused reporters may be left off the sequences shown.

B1: grancalcin (GCA), endogenous in primary hepatic macrophages (protein, UniProt Q8VC88 1-220)
chain: MAYPGYGGAFGNFSGQIPGMQMQMGQPMPGAGPNMFSGGYPGYLGYSDSYSPADDSMWTYFTAVAGQDGEVDAEELQRCLTQSGISGTYAPFSLETCRIMIAMLDRDYTGKMGFNEFKELWAALNAWKQNFMTIDQDQSGTVEHHELSQAIALMGYRLSPQTLAAIVRRYSKNGRIFFDDYVACCVKLRALTDFFRRRDHLQQGIVNFMYEDFLQGTMTI
Consider B1, for which the binding entry in assay [1] was “binds”.

B2: Myc-GCA, full length (FL) mouse GCA with an MYC tag (protein, UniProt Q8VC88 1-220)
chain: B1 chain
Regarding B2, the binding result in assay [2] and in assay [3] was “binds” each time.

B3: mouse Gca delete 1–50 with an MYC tag (dLNTD, deletion of lipophilic N-terminal extension domain) (domain or fragment, UniProt Q8VC88 51-220)
chain: SPADDSMWTYFTAVAGQDGEVDAEELQRCLTQSGISGTYAPFSLETCRIMIAMLDRDYTGKMGFNEFKELWAALNAWKQNFMTIDQDQSGTVEHHELSQAIALMGYRLSPQTLAAIVRRYSKNGRIFFDDYVACCVKLRALTDFFRRRDHLQQGIVNFMYEDFLQGTMTI
Take B3: in assay [3], the binding entry was “no binding”.
